This passage reports laser recording sensitivity and resolution results from patent US6342335B1, “Polymethine compounds, method of producing same, and use thereof” (Yamamoto Chemicals, Inc., priority 1999, dated 2002).

The data set can be described thus: Laser writing on original plate for direct printing plate making. Conditions: 0.1 weight part compound in light-to-heat conversion layer; 830 nm laser, beam diameter 10 μm, 110 mW on plate.

Consider `COCCN1/C(=C\C=C2/CCCC(/C=C/C3=[N+](CCOC)c4c(C)cc(OC)cc4C3(C)C)=C2Cl)C(C)(C)c2cc(OC)cc(C)c21` [Compound (55), 2-(2-{2-chloro-3-[(1,3-dihydro-3,3,7-trimethyl-5-methoxy-1-methoxyethyl-2H-indol-2-ylidene)ethylidene]-1-cyclohexen-1-yl}ethenyl)-3,3,7-trimethyl-5-methoxy-1-methoxyethylindolium=tetrafluoroborate], for which the laser recording sensitivity is recorded as 200 mJ/cm^2 and the resolution is 8 μm.
